Source: PubChem BioAssay AID504786 (Drosophila RNAi Screening Center, 2011)
The deposit covers about 21,000 reagents; this is an unselected part of those that have a named target and a result. 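Primary screen; positive scores mean lost reporter signal, so the sign may be inverted from the usual convention.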 Names joined by + are all predicted targets of the reagent.

- Test: 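Fly genes required for HIF-dependent transcription when hypoxia is mimicked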 (primary screen)
- Cell system: Drosophila S2 cells with a stable HIF luciferase reporter
- Reagent: long dsRNA against Drosophila genes, about 0.2 µg dsRNA per well of a 384-well plate
- Time to read-out: three days of knock-down, then 20 h of DFO before reading
- Conditions: desferrioxamine (DFO) at 100 µM, an iron chelator that mimics hypoxia, for 20 h
- Measurement: 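Firefly luciferase driven by the mouse ldh-a hypoxia-response element, measured after 20 h of 100 µM DFO; z-scores per plate, higher means more signal lost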
- Scale: z-score: higher = stronger loss of HIF reporter signal

no.	Target gene	amplicon	z-score, replicate 1	z-score, replicate 2	z-score, replicate 3	z-score, replicate 4
1	CG10581 (GeneID 40326)	DRSC11623	-0.3	0		
2	ru (GeneID 44856)	DRSC08258	-0.2	-0.9		
3	Ulp1 (GeneID 32910)	DRSC19339	-0.3	0		
4	CG42512 + CG32573	DRSC19532	-0.3	-0.9		
5	CG42512 + CG32573	DRSC19906	-0.2	0.6		
6	Or42a (GeneID 35514)	DRSC04912	-0.3	1		
7	Pof (GeneID 37947)	DRSC04405	-0.3	-0.2		
8	scramb2 (GeneID 38362)	DRSC08543	-0.2	0.2		
9	Acp53Ea (GeneID 36874)	DRSC05916	-0.3	-0.3		
10	Pgant35A (GeneID 48775)	DRSC03557	-0.2	-0.6	-0.3	-0.4
11	CG17283 (GeneID 42094)	DRSC15219	-0.2	-0.2		
12	Cmtr1 (GeneID 31355)	DRSC18400	-0.2	0.3		
13	CG15638 (GeneID 34768)	DRSC01875	-0.4	-0.1		
14	Elo68beta (GeneID 39245)	DRSC09860	-0.4	-0.5		
15	Spase22-23 (GeneID 42885)	DRSC15857	-0.6	0		
16	CG14273 (GeneID 34146)	DRSC02377	0	0.1		
17	CG13494 (GeneID 37497)	DRSC04139	-0.2	-0.3		
18	CCT4 (GeneID 34674)	DRSC02865	-0.2	2.6		
19	Ntf-2r (GeneID 35101)	DRSC02019	-0.1	-0.3		
20	CNMaR (GeneID 39127)	DRSC08992	0.3	0.7		
21	CNMaR (GeneID 39127)	DRSC10224	-0.3	-0.5		
22	mEFTu1 (GeneID 44438)	DRSC06959	0.1	-0.1		
23	CG4455 (GeneID 34975)	DRSC01983	-0.4	-0.5		
24	CG14718 (GeneID 41413)	DRSC14941	-0.4	-0.6		
25	Mctp (GeneID 37165)	DRSC06510	-0.4	0.1		
26	Kank (GeneID 36668)	DRSC05513	-0.1	-0.3		
27	Kank (GeneID 36668)	DRSC05933	-0.3	-0.4		
28	LanA (GeneID 38723)	DRSC11207	-0.1	0		
29	Pp2C1 (GeneID 31404)	DRSC18699	0	0.2		
30	VAChT (GeneID 42795)	DRSC13311	-0.2	0.1		
31	VAChT (GeneID 42795)	DRSC16608	-0.1	-0.1		
32	Pmvk (GeneID 35255)	DRSC02032	-0.4	-0.7		
33	CG31705 (GeneID 34577)	DRSC01991	1.6	2.9		
34	Ldsdh1 (GeneID 31726)	DRSC18219	-0.3	0		
35	ChLD3 (GeneID 35002)	DRSC02640	-0.3	-0.3		
36	CG6650 (GeneID 39555)	DRSC10685	-0.4	-0.2		
37	aph-1 (GeneID 33467)	DRSC00547	-0.4	-0.4		
38	CG7692 (GeneID 39934)	DRSC10902	-0.3	-0.2		
39	cype (GeneID 46040)	DRSC02356	0.7	1.4		
40	CG42784 (GeneID 326165)	DRSC02534	-0.3	-0.4		
41	CG42784 (GeneID 326165)	DRSC02535	0.3	2.9		
42	CG32801 (GeneID 31152)	DRSC17964	-0.3	-0.5		
43	Oxp (GeneID 37002)	DRSC06712	-0.2	-0.2		
44	tmod (GeneID 43633)	DRSC13993	-0.4	-0.2		
45	tmod (GeneID 43633)	DRSC14314	0.5	0.1		
46	tmod (GeneID 43633)	DRSC15076	-0.6	-0.4		
47	tmod (GeneID 43633)	DRSC17062	-0.3	-0.3		
48	Ciao1 (GeneID 36655)	DRSC06170	-0.4	-0.4		
49	GluRIA (GeneID 38742)	DRSC11176	-0.4	-0.8		
50	eyg (GeneID 39419)	DRSC11344	3.3	1.7		
51	CG15019 (GeneID 38542)	DRSC08473	-0.1	-0.4		
52	CG43867 (GeneID 31031)	DRSC17582	-0.1	-0.2		
53	CG43867 (GeneID 31031)	DRSC17836	-0.3	-0.2		
54	CG43867 (GeneID 31031)	DRSC17837	-0.2	-0.1		
55	CG43867 (GeneID 31031)	DRSC17943	-0.2	-0.9		
56	Rcd-1 (GeneID 32966)	DRSC19569	1.3	0.8		
57	Adck5 (GeneID 39260)	DRSC10890	-0.3	0.5		
58	Akr1B (GeneID 39304)	DRSC10581	-0.4	-0.2		
59	Polr3B (GeneID 36289)	DRSC07536	0.1	0.9		
60	jtb (GeneID 36838)	DRSC06868	-0.1	-0.4		
61	CG15109 (GeneID 37195)	DRSC06536	-0.1	0.1		
62	CG9173 (GeneID 38165)	DRSC08635	-0.4	-0.4		
63	CG34026 (GeneID 3885569)	DRSC17616	-0.3	-0.4		
64	coil (GeneID 35785)	DRSC07242	-0.3	-0.5		
65	CG10359 (GeneID 38434)	DRSC08156	-0.4	-0.6		
66	CG15249 (GeneID 31924)	DRSC17978	-0.3	-0.9		
67	CheB53a (GeneID 3346205)	DRSC06625	-0.4	-0.6		
68	CG17140 + CG17139	DRSC02585	-0.1	0.1		
69	CG17140 + CG17139	DRSC02586	-0.2	0.1		
70	zen2 (GeneID 40827)	DRSC12633	-0.3	-0.5		
71	L (retired record) (GeneID 44831)	DRSC05966	-0.2	0.1		
72	L (retired record) (GeneID 44831)	DRSC05967	0.4	0.1		
73	CG31326 (GeneID 41728)	DRSC16532	-0.2	-0.1		
74	Polr2C (GeneID 34796)	DRSC03415	3	3.6		
75	CG14712 (GeneID 41397)	DRSC14935	-0.5	-0.3		
76	Top2 (GeneID 35225)	DRSC03459	-0.1	-0.2		
77	Obp83g (GeneID 170878)	DRSC12269	-0.3	-0.7		
78	Tsp42Ea (GeneID 59178)	DRSC04982	-0.3	-0.2		
79	Tsp42Ea (GeneID 59178)	DRSC06792	-0.2	-0.3		
80	CG11828 (GeneID 43416)	DRSC14394	-0.1	0.1		
81	CG13678 (GeneID 38922)	DRSC10036	-0.1	-0.4		
82	E(spl)malpha-BFM (GeneID 43153)	DRSC16994	0.2	0		
83	obst-G (GeneID 39355)	DRSC11103	-0.2	0.2		
